Results as given in article PMC12238850, “Molecular determinants for recognition of serotonylated chromatin” (Nucleic Acids Research, 2025).
These are yes or no findings as the source states them, for the method shown. In cells and extracts the contact can be indirect. Some results given as binding are weak or reduced against the parent protein; the word gives no strength. Tags and fused reporters may be left off the sequences shown.

T1: H3K4me2 peptide, biotinylated: H-ARTK(Me2)…(biotin)-NH2
T1 sequence (peptide, dimethyl-lysine at 4; biotin on the C-terminal lysine (K14); C-terminal amide): ARTKQTARKSTGGK

T2: H3 peptide, unmodified, biotinylated: H-…(biotin)-NH2
T2 sequence (peptide, biotin on the C-terminal lysine (K14); C-terminal amide): ARTKQTARKSTGGK

T3: H3K4me1 peptide, biotinylated: H-ARTK(Me)…(biotin)-NH2
T3 sequence (peptide, monomethyl-lysine at 4; biotin on the C-terminal lysine (K14); C-terminal amide): ARTKQTARKSTGGK

T4: H3K4me3 peptide, biotinylated: H-ARTK(Me3)…(biotin)-NH2
T4 sequence (peptide, trimethyl-lysine at 4; biotin on the C-terminal lysine (K14); C-terminal amide): ARTKQTARKSTGGK

B1: GST-tagged Mus musculus Taf3-PHD domain (residues 857-924), wild type (domain or fragment, UniProt Q5HZG4 857-924)
chain: YVIRDEWGNQIWICPGCNKPDDGSPMIGCDDCDDWYHWPCVGIMAAPPEEMQWFCPKCANKIKKDKKH
B2: GST-Taf3-PHD (Mus musculus Taf3 PHD finger, residues 857-924, GST-tagged) (domain or fragment, UniProt Q5HZG4 857-924)
chain: B1 chain

Assays:
[1] = target: Biotinylated H3 (1–13) peptide, unmodified (H3K4me0) (UniProt P68431); assay: pull-down; biotinylated H3 (1–13) peptides on streptavidin Dynabeads, incubated with bacterial crude lysate expressing GST-Taf3-PHD; 2 h, 4°C; 50 mM Tris–HCl pH 8.0, 150 mM NaCl, 0.5% NP-40, 10 μM ZnCl2; SDS–PAGE, Coomassie; only the target purified
[2] = target: Biotinylated H3 (1–13) peptide, H3Q5ser (H3K4me0) (UniProt P68431); assay: as above
[3] = target: Biotinylated H3 (1–13) peptide, H3K4me3 (UniProt P68431); assay: as above
[4] = target: Biotinylated H3 (1–13) peptide, H3K4me2Q5ser (UniProt P68431); assay: as above
[5] = target: Biotinylated H3 (1–13) peptide, H3K4me1 (UniProt P68431); assay: as above
[6] = target: Biotinylated H3 (1–13) peptide, H3K4me2 (UniProt P68431); assay: as above
[7] = target: T1, H3K4me2 peptide, biotinylated: H-ARTK(Me2)…(biotin)-NH2; assay: pull-down; biotinylated H3 peptides immobilised on Dynabeads M-280 Streptavidin, incubated with bacterial crude lysate expressing GST-Taf3-PHD; 50 mM Tris-HCl pH 8.0, 150 mM NaCl, 0.5% NP-40, 10 uM ZnCl2, 2 h at 4°C; SDS-PAGE, Coomassie; only the target purified
[8] = target: T2, H3 peptide, unmodified, biotinylated: H-…(biotin)-NH2; assay: as above
[9] = target: T3, H3K4me1 peptide, biotinylated: H-ARTK(Me)…(biotin)-NH2; assay: as above
[10] = target: T4, H3K4me3 peptide, biotinylated: H-ARTK(Me3)…(biotin)-NH2; assay: as above

Binder	binding [1]	binding [2]	binding [3]	binding [4]	binding [5]	binding [6]	binding [7]	binding [8]	binding [9]	binding [10]
B1	binds weakly	binds weakly	binds	binds	binds	binds				
B2							binds	binds weakly	binds	binds
